Earlier results in patent US20090285840A1, “METHODS FOR TREATING PATHOLOGICAL NEOVASCULARIZATION” (New York Society for the Ruptured and Crippled Maintaining …, priority 2008, published 2009).
Some entries share one result that the patent states for a list of compounds.

tested on: human ADAM9 mRNA; settings: quantitative real-time PCR; threshold statements in text based on TABLE 1; cited from earlier work

Substance | inhibited synthesis of human ADAM9 mRNA
24 (GTTTCCATTGGTCCAAATCT; listed as DNA, chemistry not given here) [compound 24] | at least 70%
30 (AAGATTTTATAATTGCTCCT; listed as DNA, chemistry not given here) [compound 30] | at least 70%
33 (ATTCATTCCAAGATTATGAC; listed as DNA, chemistry not given here) [compound 33] | at least 70%
36 (TCTTTGCTCCACAGGAACAA; listed as DNA, chemistry not given here) [compound 36] | at least 70%
45 (GCTATTGTGAACGAATGTCA; listed as DNA, chemistry not given here) [compound 45] | at least 80%
46 (CAAGATTCTAGAGTATGATG; listed as DNA, chemistry not given here) [compound 46] | at least 80%
47 (ATCATGTCATACCTTTCCTT; listed as DNA, chemistry not given here) [compound 47] | at least 80%
50 (TCCCACAAATGCCATTCCTG; listed as DNA, chemistry not given here) [compound 50] | at least 80%
51 (AGAAAACCATTTCTTCCTTC; listed as DNA, chemistry not given here) [compound 51] | at least 80%
54 (CTGATTAGTCAGTTTTCACA; listed as DNA, chemistry not given here) [compound 54] | at least 80%
